In PubChem BioAssay AID901 (National Center for Advancing Translational Sciences (NCATS), 2007):
Some of the results follow. Further columns of the screen follow, without active or inactive calls. Compounds called inactive in the main read-out are mostly missing here. Words in brackets tell the shape of the fitted curve; partial curves, single points and poor fits give uncertain potencies.

Assay: qHTS Assay for Identifying the Cell-Membrane Permeable IMPase Inhibitors
Details: CHO-M1 cells, IP1 accumulation, HTRF TR-FRET ratio; measured here: donor channel 620 nm AC50
In the case of `O=C(Nc1ccc2c(c1)OCO2)Oc1ccccc1`, the AC50 is reported as 5.62 µM [rising, single point]. For `O=C(Nc1cccc(-c2nc3ccccc3[nH]2)c1)c1ccccc1F`, the AC50 was 3.16 µM [falling, single point]. With `COC(=O)c1ccc(COc2ccc(-c3nn[nH]n3)cc2)cc1` the AC50 was 3.98 µM [rising, full curve]. In the case of `CCCC/C(O)=C1\C(=O)CC(C)(C)CC1=Nc1ccc(OC)cc1`, the AC50 is reported as 0.398 µM [rising, partial curve, poor fit]. For `CC(/C=C/c1ccccc1)=N\NC(=O)C1CC1(C)c1ccccc1` (stereo not drawn), the AC50 was 0.316 µM [falling, full curve, poor fit]. With `Cc1cc(N2C(=O)C(O)=C(C(=O)c3cccs3)C2c2ccccc2)no1` (stereo not drawn) the AC50 was 10 µM [rising, partial curve]. With `CCc1c(C(=O)N/N=C/c2ccc(C)o2)csc1C` the AC50 was 0.126 µM [rising, single point]. With `Cc1sc2ncnc(Sc3nc4ccccc4s3)c2c1C` the AC50 was 35.5 µM [rising, single point]. With `N#Cc1cnn2c1nc(N1CCOCC1)c1ccccc12` the AC50 was 0.794 µM [rising, single point]. For `COc1ccc(CCNC(=O)CSc2nnc(CNc3ccc(Cl)cc3)o2)cc1OC`, the AC50 was 0.398 µM [rising, full curve]. In the case of `COc1ccccc1OCC(=O)NCCNC(=O)COc1ccccc1OC`, the AC50 is reported as 6.31 µM [falling, single point]. With `CC(C(=O)Nc1ccc(F)c(F)c1F)N1CCCCCC1` (stereo not drawn) the AC50 was 22.4 µM [rising, single point]. In the case of `CCSc1nnc(NC(=O)C2CCCCC2)s1`, the AC50 is reported as 7.94 µM [falling, partial curve, poor fit]. With `O=[N+]([O-])c1cc(C(F)(F)F)ccc1Sc1nccn1Cc1ccccc1` the AC50 was 2 µM [rising, full curve, poor fit]. In the case of `Cc1cccc(C)c1OCC(=O)Nc1c(C(=O)c2ccccc2)oc2ccccc12`, the AC50 is reported as 25.1 µM [rising, single point]. With `O=C(O)c1ccc(Nc2nc3ccccc3c3nncn23)cc1` the AC50 was 6.31 µM [falling, single point]. With `Cn1nc(-c2ccc(OCC(=O)Nc3cccc(C(F)(F)F)c3)cc2)c2ccccc2c1=O` the AC50 was 0.0794 µM [falling, single point]. In the case of `O=[N+]([O-])c1cccc2ccc(/C=C/c3ccc(Cl)cc3)nc12`, the AC50 is reported as 25.1 µM [falling, single point]. For `COc1ccc(-c2noc(CCCOc3ccccc3)n2)cc1OC`, the AC50 was 31.6 µM [rising, single point]. For `COc1cccc(CNc2nc3nc4c(c(=O)n3[nH]2)CCC4)c1`, the AC50 was 5.01 µM [rising, partial curve, poor fit]. With `CCOC(=O)CNC(=O)Cn1cnc2ccc(S(=O)(=O)N3CCC(C)CC3)cc2c1=O` the AC50 was 5.01 µM [falling, single point]. With `CSc1cccc(NC(=O)c2c(Cl)cnn2C)c1` the AC50 was 6.31 µM [rising, single point]. For `O=C(/C=C/c1ccccc1Cl)NCCc1ccccc1`, the AC50 was 0.316 µM [rising, full curve, poor fit]. For `CCn1c(CSc2nnc(-c3ccoc3C)n2C)nc2cc(S(=O)(=O)N(C)C)ccc21`, the AC50 was 0.0316 µM [falling, full curve, poor fit]. For `CCC(Oc1ccccc1)C(=O)Nc1ccc(S(=O)(=O)NCC2CCCO2)cc1` (stereo not drawn), the AC50 was 0.0158 µM [rising, full curve, poor fit]. With `CCNCCC(=O)N1c2ccccc2Sc2ccc(NC(=O)OCC)cc21` the AC50 was 0.0501 µM [falling, full curve, poor fit]. In the case of `CCOC(=O)C1CCCN(C(=O)c2cnn3c(C(F)(F)F)cc(-c4ccccc4)nc23)C1` (stereo not drawn), the AC50 is reported as 0.00501 µM [falling, full curve, poor fit]. With `Cc1nnc(NC(=O)c2ccc3ccccc3c2)o1` the AC50 was 0.794 µM [rising, full curve, poor fit]. In the case of `O=C(c1ccco1)n1nc(-c2ccc(Cl)cc2)nc1NCc1ccccc1`, the AC50 is reported as 3.55 µM [rising, single point]. With `CCCSc1nnc(Cc2cc(=O)[nH]c(=O)[nH]2)n1-c1cc(C)ccc1C` the AC50 was 31.6 µM [rising, partial curve]. With `CCOc1ccccc1OCCn1ncc2ccc(OC)c(OC)c2c1=O` the AC50 was 0.0501 µM [rising, full curve, poor fit]. For `COc1ccc(NC(=O)c2ccccn2)cc1`, the AC50 was 7.94 µM [falling, partial curve]. For `CC(C)NC(=O)CSc1nc(-c2cccs2)cc(-c2ccccc2)c1C#N`, the AC50 was 25.1 µM [rising, single point]. For `O=c1cc(O)cc(/C=C\c2ccc(O)c(O)c2)o1`, the AC50 was 12.6 µM [falling, partial curve, poor fit]. With `COc1ccc(N2CCN(Cc3oc(CO)cc(=O)c3O)CC2)cc1` the AC50 was 0.794 µM [falling, full curve, poor fit]. In the case of `COc1cccc(CSc2nnc(-c3ccc(F)cc3)o2)c1`, the AC50 is reported as 11.2 µM [falling, partial curve]. For `COc1ccc(/C=C2/SC(=O)N(CCC(=O)Nc3ccccc3)C2=O)cc1OC`, the AC50 was 31.6 µM [rising, single point]. For `Cc1ccccc1Nc1c(-c2cccc(N(C)C)c2)nc2ccc(Br)cn12`, the AC50 was 0.0316 µM [falling, full curve, poor fit]. With `COc1cccc(-c2nn(C)c3sc(C(=O)NCc4ccccn4)cc23)c1` the AC50 was 0.141 µM [falling, full curve, poor fit]. In the case of `Cc1ccc(SCc2cc(-c3ccc(Cl)cc3)on2)cc1`, the AC50 is reported as 0.00398 µM [rising, full curve, poor fit]. With `Cc1noc(C)c1COc1cccc(C(=O)N2CCN(C/C=C/c3ccccc3)CC2)c1` the AC50 was 0.631 µM [falling, full curve]. For `COc1ccc(-n2c(Cc3cccn3C)nnc2SCC(=O)NCc2ccc(F)cc2)cc1`, the AC50 was 20 µM [rising, partial curve]. In the case of `CCOC(=O)C(C)(C)Sc1nc2c(cnn2-c2ccc(C)cc2)c(=O)[nH]1`, the AC50 is reported as 0.2 µM [falling, full curve]. For `CC1=C(C(=O)OC(C)C)C(c2ccsc2)NC(=O)N1C` (stereo not drawn), the AC50 was 0.1 µM [falling, partial curve, poor fit]. For `CC(Sc1nc(N2CCOCC2)c2c(c1C#N)CC(C)(C)OC2)C(=O)Nc1ccccc1` (stereo not drawn), the AC50 was 31.6 µM [rising, single point]. With `COc1ccc(NC(=O)CSc2nccn2-c2ccccc2)cc1` the AC50 was 3.98 µM [rising, single point]. In the case of `CCCNC(=O)NC(=O)COc1ccc2oc3ccccc3c2c1`, the AC50 is reported as 0.0316 µM [falling, partial curve, poor fit]. With `Cc1cc2c(N)cccc2nn1` the AC50 was 10 µM [falling, partial curve]. For `CCOC(=O)c1sc(C)c(C(=O)NC2CCCCC2)c1N`, the AC50 was 3.98 µM [rising, full curve, poor fit]. For `Cc1ccc(-n2cc(C(=O)c3ccc(F)cc3)nn2)cc1Cl`, the AC50 was 20 µM [rising, single point]. In the case of `Nc1ccc(-c2nc3ccc(C(=O)O)cc3s2)cc1`, the AC50 is reported as 12.6 µM [rising, single point]. For `CCCCn1c(=O)c(CCC(=O)OC(C)C(=O)Nc2cccc(Cl)c2Cl)nc2ccccc21` (stereo not drawn), the AC50 was 0.501 µM [falling, full curve]. In the case of `CCOc1ccc(C(=O)/C=C/c2ccccc2C(F)(F)F)cc1`, the AC50 is reported as 3.98 µM [rising, partial curve]. With `CCn1c(C)cc(=S)c2ccccc21` the AC50 was 10 µM [rising, single point]. In the case of `CCCCc1cc(=O)oc2c(CN(C)C)c(O)ccc12`, the AC50 is reported as 31.6 µM [rising, single point]. In the case of `Cc1ccc(CNc2cnn(C34CC5CC(CC(C5)C3)C4)c(=O)c2Cl)cc1`, the AC50 is reported as 20 µM [falling, single point]. In the case of `O=C(CSc1nnc(CNc2ccc(F)cc2)n1Cc1ccccc1)NCc1ccccc1`, the AC50 is reported as 0.2 µM [rising, partial curve]. For `COC(=O)C1=C(C)OC(N)=C(C#N)C1c1ccco1` (stereo not drawn), the AC50 was 1 µM [falling, full curve]. For `CCn1c(C)c(CCC(=O)O)c(=O)n2nc(-c3ccccc3OC)cc12`, the AC50 was 3.16 µM [rising, single point]. With `Cc1cc(OCCn2cc(C(=O)c3cccs3)c3ccccc32)ccc1Cl` the AC50 was 0.00316 µM [rising, full curve, poor fit]. For `Cc1noc(C)c1S(=O)(=O)N1CCC(C(=O)N2CCC(C)CC2)CC1`, the AC50 was 25.1 µM [falling, single point]. For `Cc1ccc(NC(=O)CSc2nnc(CNC(=O)C34CC5CC(CC(C5)C3)C4)n2-c2ccc(F)cc2)cc1`, the AC50 was 14.1 µM [falling, partial curve, poor fit]. In the case of `CC1CCN(S(=O)(=O)c2ccc(Cl)cc2)CC1`, the AC50 is reported as 3.16 µM [rising, single point]. In the case of `COc1ccccc1C(=O)N1CCC(C(=O)c2ccc(F)cc2)CC1`, the AC50 is reported as 2.51 µM [rising, full curve]. With `O=C(CC1(O)C(=O)Nc2cc(Cl)cc(Cl)c21)c1ccccc1O` (stereo not drawn) the AC50 was 7.94 µM [falling, partial curve]. With `O=C(O)COc1ccc(-c2nccc(-c3cccs3)n2)cc1` the AC50 was 15.8 µM [rising, single point]. For `O=C(Cc1ccc(-n2cnnn2)cc1)NC12CC3CC(CC(C3)C1)C2`, the AC50 was 0.355 µM [rising, partial curve, poor fit]. With `CCN(CC)C(=O)CSc1nc(-c2ccco2)cc(C(F)(F)F)c1C#N` the AC50 was 2.51 µM [falling, single point].
